Test results published in PubChem BioAssay AID493014 (National Center for Advancing Translational Sciences (NCATS), 2011).
The other results are listed elsewhere or left out. These are further read-outs of the screen, such as a control signal, another cell line or another target. No call is given for them. Most of these compounds were active or inconclusive in the main read-out, so they are no random draw. Words in brackets tell the shape of the fitted curve; partial curves, single points and poor fits give uncertain potencies.

Experiment: qHTS Assay to Find Inhibitors of Chronic Active B-Cell Receptor Signaling
Conditions: ABC-DLBCL IkBa-CBG/CBR reporter, luminescence ratio (green luciferase fused to IkBa over red control in TMD8 lymphoma cells), 4 h
Outline: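 TMD8 ABC-DLBCL cells carrying doxycycline-inducible green luciferase fused to IkappaBalpha plus unfused red luciferase were exposed to compounds (up to 46 uM) for 4 hrs at 37C. Activity came from the overlap-corrected green/red luminescence ratio.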

[1] = measured here: CBR red luminescence, cell number

Row | Compound | AC50 [1] | AC50 (measured here: IkBa-CBG green luminescence)
1 | O=C1c2ccccc2N2C(=O)c3ccccc3C2N1Cc1ccccc1 (centres undefined) | 10 µM [falling, partial curve] | 
2 | CCCCN1C=CC(=C2C(=O)c3ccccc3C2=O)C=C1 | 3.98 µM [falling, full curve] | 
3 | CC(CNC(=O)CCn1ccc2cc(S(=O)(=O)N3CCCC3)ccc21)c1ccccc1 (centres undefined) | 5.01 µM [falling, single point] | 
4 | CCN(c1ccccc1)S(=O)(=O)c1ccc(C(=O)Nc2nccs2)cc1 | 5.8 µM [falling, partial curve] | 4.61 µM [rising, partial curve, poor fit]
5 | CC(C)(C)NC(=O)Nc1ccc(Br)cc1 | 1 µM [rising, full curve, poor fit] | 
6 | CC(C)CC(=O)N=Nc1c(O)[nH]c2ccccc12 | 28.2 µM [falling, single point] | 
7 | COc1ccc(C(=O)Nc2ccccn2)cc1S(=O)(=O)N1CCOCC1 | 1.41 µM [falling, full curve, poor fit] | 
8 | O=C(O)c1cc(/C=N\O)ccc1OCc1ccccc1 | 5.17 µM [falling, full curve] | 
9 | COc1ccc(Nc2nc(N)nc(CSc3nc(C)cc(C)n3)n2)cc1 | 11.2 µM [rising, partial curve] | 
10 | O=C(CSCc1ccc(Cl)cc1Cl)Nc1nccs1 | 5.8 µM [rising, partial curve] | 
11 | Nc1nc(NC(=O)c2ccc(F)cc2)ns1 | 9.2 µM [falling, partial curve, poor fit] | 
12 | C[C@H]1CN([C@@H](C)CO)C(=O)c2cccc(NS(=O)(=O)c3ccc(F)cc3)c2O[C@H]1CN(C)Cc1ccc(Cl)c(Cl)c1 | 29.1 µM [falling, single point] | 
13 | O=C(Nc1cccc(Cl)c1)N(CCN1CCOCC1)Cc1ccccc1F | 4.11 µM [rising, full curve, poor fit] | 
14 | CC1=CC(C)(C)Nc2ccc(OC(=O)CN3C(=O)C4CCCCC4C3=O)cc21 (centres undefined) | 18.4 µM [falling, partial curve, poor fit] | 
15 | O=C(COC(=O)CNC(=O)C1CCCCC1)Nc1ccccc1OC(F)F | 23.1 µM [rising, single point] | 
16 | Cc1ccc(C(=O)N/C(=C\c2ccco2)C(=O)N2CC(C)OC(C)C2)cc1C (centres undefined) | 1.12 µM [rising, partial curve, poor fit] | 
17 | COc1ccc(CCN(C)CCC(=O)Nc2cc(C)ccc2C)cc1OC | 0.282 µM [rising, full curve, poor fit] | 
18 | COc1cc2c(cc1OC)CN(C(=O)c1ccc(S(=O)(=O)N3CCCCCC3)cc1)CC2 | 5.17 µM [rising, full curve, poor fit] | 

Two of the compounds above, as tab-separated lines.
Row	Compound	AC50 [1]	AC50 (measured here: IkBa-CBG green luminescence)
12	C[C@H]1CN([C@@H](C)CO)C(=O)c2cccc(NS(=O)(=O)c3ccc(F)cc3)c2O[C@H]1CN(C)Cc1ccc(Cl)c(Cl)c1	29.1 µM [falling, single point]	
13	O=C(Nc1cccc(Cl)c1)N(CCN1CCOCC1)Cc1ccccc1F	4.11 µM [rising, full curve, poor fit]	
